The target in the series is T1, TCP4 DNA binding domain (Arabidopsis thaliana) (UniProt Q8LPR5).
T1 sequence (looked up, limits assumed): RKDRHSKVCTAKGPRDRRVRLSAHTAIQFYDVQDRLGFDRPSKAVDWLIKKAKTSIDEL
In words: EMSA. The conditions noted are these: EMSA: ~180 ng protein + ~200 ng dsDNA, 4 °C 20 min; DNA annealed in 25 mM Tris, 100 mM NaCl pH 8.0; 7% native PAGE in 0.5x TBE, ethidium bromide; recombinant protein; protein details: C-terminal His (pET-21b).

The exact form of at least one protein or probe is not confirmed. At least one verdict rests on a figure or table, not on a statement of the authors. Tags and fusion partners may be left off the protein sequences shown.

Turning to “CGTCTTTATGGTCCATTCTATATG (double strand) [SPT promoter probe 2]”, the binding result is listed as “binds”. In the case of “GAAAATCTCGTGGTCCATCTAAAAAT (double strand) [SPT promoter probe 1]” it was “binds”.

These data come from paper PMC10499876, “Arabidopsis TCP4 transcription factor inhibits high temperature-induced homeotic conversion of ovules”.
